Test results published in patent publication US11654096B2 (L'OREAL, priority 2017, dated 2023).

Test system: normal human epidermal keratinocytes (NHEKs)
Assay: Neosynthesis of sulfated GAGs by NHEKs, [35S]-sulfate incorporation
Format: cell-based
Conditions: t-test vs control
Procedure: The effects of the compounds on the neosynthesis of total and sulfated glycosaminoglycans (GAGs) were studied on two cell models, normal human epidermal keratinocytes (NHEKs) and normal human dermal fibroblasts (NHDFs). The effects of these compounds were evaluated by measuring: • the incorporation of [3H]-glucosamine into the total GAGs neosynthesized by NHEKs and by NHDFs, • the incorporation of [35S]-sulfate into the sulfated GAGs neosynthesized by NHEKs and by NHDFs.
The keratinocytes were seeded into wells and cultured in culture medium for 24 hours. The medium was then replaced with culture medium containing or not containing (control) the compounds to be tested or the reference (4-nitrophenyl β-D-xylopyranoside at 300 μM), then the cells were incubated for 72 hours with the addition of the [3H]-glucosamine radioactive label (total GAGs) or of the [35S]-sulfate radioactive label (sulfated GAGs) for the final 24 hours of incubation.
At the end of the incubation, the glycosaminoglycans were extracted from the cells with a chaotropic buffer. The GAGs were then purified by ion exchange chromatography: adsorption of the anionic molecules on Q-Sepharose beads and desorption of the molecules of low or medium anionic nature, with a suitable solution.
The radioactivity incorporated into the molecules left on the support (GAGs, predominantly) was measured by liquid scintillation.
All the experimental conditions were performed in n=3.
The inter-group comparisons were performed using Student's non-paired two-sided t-test. The statistical analyses can be interpreted if n≥5; however, for n<5, the data calculated are provided only by way of indication.

SMILES | p(1) (campaign 2, 1 μM) | p(1) (campaign 2, 10 μM) | p(1) (campaign 1, 300 μM) | p(1) (campaign 2, 300 μM) | p(1) (campaign 1, 10 μM) | p(1) (campaign 1, 100 μM) | p(1) (campaign 2, 100 μM)
Oc1cc(O)cc(/C=C/c2ccc(O[C@@H]3OC[C@@H](O)[C@H](O)[C@H]3O)cc2)c1 [Compound 2a, 4-[(E)-2-(3,5-dihydroxy-phenyl)ethenyl]phenyl β-D-xylopyranoside] | * (0.01 to 0.05, Significant) | *** (<0.001, Extremely significant) |  |  |  |  | 
O=[N+]([O-])c1ccc(O[C@@H]2OC[C@@H](O)[C@H](O)[C@H]2O)cc1 [4-Nitrophenyl β-D-xylopyranoside, 4-nitrophenyl β-D-xylopyranoside] |  |  | *** (<0.001, Extremely significant) | *** (<0.001, Extremely significant) |  |  | 
Oc1ccc(C=Cc2cc(O)cc(O)c2)cc1 [Resveratrol] | * (0.01 to 0.05, Significant) | ns (>0.05, Not significant) |  |  | * (0.01 to 0.05, Significant) | *** (<0.001, Extremely significant) | 
OC[C@H]1O[C@@H](Oc2cc(O)cc(/C=C/c3ccc(O)cc3)c2)[C@H](O)[C@@H](O)[C@@H]1O [Polydatin] |  |  |  |  | ns (>0.05, Not significant) | ns (>0.05, Not significant) | 
Oc1ccc(/C=C/c2cc(O)cc(O[C@@H]3OC[C@@H](O)[C@H](O)[C@H]3O)c2)cc1 [Compound 1a, 3-hydroxy-5-[(E)-2-(4-hydroxyphenyl)ethenyl]phenyl β-D-xylopyranoside] |  | *** (<0.001, Extremely significant) |  |  | ** (0.001 to 0.01, Very significant) | *** (<0.001, Extremely significant) | *** (<0.001, Extremely significant)
